Test results as given in PMC10671598.
No constants are given. Whether binding was seen depends on the method and setting. In cells and extracts the contact can be indirect. Some results given as binding are weak or reduced against the parent protein; the word gives no strength. Tags and fused reporters may be left off the sequences shown.

Amino acid sequences for entries named in this document (tags omitted).
UniProt P60484: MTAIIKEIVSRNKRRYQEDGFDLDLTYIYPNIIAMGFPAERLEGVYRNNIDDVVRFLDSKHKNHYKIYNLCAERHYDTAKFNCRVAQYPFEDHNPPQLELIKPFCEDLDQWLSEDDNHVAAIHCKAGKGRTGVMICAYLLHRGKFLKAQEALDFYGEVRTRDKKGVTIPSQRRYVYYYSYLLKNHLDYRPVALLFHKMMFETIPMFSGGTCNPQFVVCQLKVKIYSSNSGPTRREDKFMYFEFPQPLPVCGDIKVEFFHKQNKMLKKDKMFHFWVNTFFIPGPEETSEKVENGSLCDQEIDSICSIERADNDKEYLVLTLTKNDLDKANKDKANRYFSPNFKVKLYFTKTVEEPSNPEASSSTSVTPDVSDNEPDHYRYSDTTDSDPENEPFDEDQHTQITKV

Target: PTEN-Flag (UniProt P60484)
Test: co-IP; HEK293T transfected with the indicated plasmids for 24 h; lysis buffer 20 mM Tris pH 7.5, 150 mM NaCl, 1% Triton X-100, 1 mM EDTA; Flag beads or the indicated antibody with protein A/G agarose, 4 °C overnight; immunoblot; for PTEN-IRF3 also with myc-RNF138 co-expressed or in RNF138-KO cells

binding: binds
B1: myc-RNF138 (protein, UniProt Q8WVD3 1-245)
chain: MAEDLSAATSYTEDDFYCPVCQEVLKTPVRTTACQHVFCRKCFLTAMRESGAHCPLCRGNVTRRERACPERALDLENIMRKFSGSCRCCAKQIKFYRMRHHYKSCKKYQDEYGVSSIIPNFQISQDSVGNSNRSETSTSDNTETYQENTSSSGHPTFKCPLCQESNFTRQRLLDHCNSNHLFQIVPVTCPICVSLPWGDPSQITRNFVSHLNQRHQFDYGEFVNLQLDEETQYQTAVEESFQVNI
